From PubChem BioAssay AID493014 (National Center for Advancing Translational Sciences (NCATS), 2011) come the findings set out here.

The list shows a part of the results. These are further read-outs of the screen, such as a control signal, another cell line or another target. No call is given for them. Compounds called inactive in the main read-out are mostly missing here. The note in brackets gives the kind of curve behind each potency; many fits are weak.

The assay is described as follows: qHTS Assay to Find Inhibitors of Chronic Active B-Cell Receptor Signaling. The conditions noted are these: ABC-DLBCL IkBa-CBG/CBR reporter, luminescence ratio (green luciferase fused to IkBa over red control in TMD8 lymphoma cells), 4 h. The procedure, abridged:
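TMD8 human ABC-DLBCL cells with doxycycline-inducible IκBα–green luciferase fusion and unfused red luciferase, in 0.5% FBS medium; compounds up to 46 uM, 4 h at 37C. Green/red luminescence ratio, filter-overlap corrected, fitted to concentration-response curves.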

The mark [1] stands for this setting: measured here: CBR red luminescence, cell number.
Where [2] appears, read: measured here: IkBa-CBG green luminescence.

Regarding `COCCN(Cc1nc(-c2ccc(-c3ccccc3)cc2)oc1C)C(C)C`, the AC50 under setting [1] was 0.316 µM [falling, full curve].

As to `CC1CCCCN1CCNC(=O)c1ccc2c(=O)n(Cc3ccc(Cl)cc3)c(=S)[nH]c2c1` (stereo not given), the AC50 under setting [1] is 17.8 µM [falling, single point]. As to `COc1ccc(S(=O)(=O)N(CCc2ccccc2)CC(=O)NC(C)C)cc1`, the AC50 under setting [1] was 0.103 µM [falling, full curve, poor fit]. Consider `Clc1ccc(-c2nc3nc4ccccc4nc3n2Cc2ccco2)cc1`, for which the AC50 was 8.2 µM [falling, partial curve] under setting [1] and 25.9 µM [rising, partial curve, poor fit] under setting [2]. Take `O=C(COc1cc2oc(=O)cc(-c3ccccc3)c2cc1Cl)NCC1CCC(C(=O)O)CC1` (stereo not given): under setting [1], the AC50 is 7.08 µM [rising, partial curve]. In the case of `COc1ccc(C(=O)/C=C/c2ccc(OC)c(Cn3nnc4ccccc43)c2)cc1`, the AC50 was 20.6 µM [falling, partial curve, poor fit] under setting [1] and 23.1 µM [falling, partial curve, poor fit] under setting [2]. Take `Nc1ccccc1C(=O)N/N=C1/C2CN3CCN(C2)CC1(Cc1ccccc1)C3`: under setting [1], the AC50 was 11.2 µM [falling, partial curve, poor fit]. On to `CC(C)[C@H](NC(=O)c1ccccc1F)C(=O)NC1CCCCC1`, for which the concentration at half-maximal activity (AC50) under setting [1] is 0.0058 µM [falling, full curve, poor fit]. In the case of `O=C(CN1CCN(Cc2ccccc2)CC1)Nc1ccc([N+](=O)[O-])cc1C(=O)Nc1ccccc1F`, under setting [1], the AC50 is 0.82 µM [rising, full curve, poor fit]. Take `COc1ccc(NS(=O)(=O)c2ccc(-n3nnc4ccccc43)c([N+](=O)[O-])c2)cc1`: under setting [1], the AC50 is 0.13 µM [falling, full curve, poor fit]. Turning to `COc1ccc(CN2CCN(C(=O)c3cccc4ccccc34)CC2)c(OC)c1OC`, under setting [1], the AC50 was 2.24 µM [rising, full curve, poor fit]. Still for that read-out and setting: next, `COc1ccc(C(=O)NN=C2CCCC2)cc1OC`: 10 µM [falling, partial curve, poor fit]; `Cn1c(=O)c(C(=O)NNC(=O)c2ccc(Br)cc2)c(O)c2ccccc21`: 8.91 µM [falling, partial curve, poor fit]. Take `COc1cccc(N2CCN(c3ccc(S(=O)(=O)N4CCN(C)CC4)cc3[N+](=O)[O-])CC2)c1`: the AC50 under setting [1] was 29.1 µM [falling, single point]. On the same count and under the same terms, next, `Cc1nc2ccc(C(=O)N/N=C/c3ccc(O)cc3)cc2[nH]1`: 7.94 µM [falling, partial curve, poor fit]. Regarding `Cc1csc(NC(=O)CSC2=NS(=O)(=O)c3ccccc3N2)n1`, under setting [1], the concentration at half-maximal activity (AC50) is 14.6 µM [falling, partial curve].

As to `Cc1oc2cc(O)cc(O)c2c(=O)c1-c1ccc2c(c1)OCCCO2`, under setting [1], the AC50 was 2 µM [rising, full curve, poor fit]. `O=C(COC(=O)C1CC1)Nc1ccc(Oc2ccccc2)cc1`: the AC50 under setting [1] was 2.51 µM [rising, single point]. The same measure, in the same setting: next, `N#C/C(=C/c1ccccc1OCc1ccc(F)cc1)c1ccc(C(=O)O)cc1`: 15.8 µM [rising, partial curve, poor fit]; `Fc1ccccc1/C=N/n1c(C2CCCCC2)n[nH]c1=S`: 12.6 µM [rising, partial curve]; `COC(=O)c1c(N)n(-c2ccc(N3CCOCC3)cc2)c2nc3ccccc3nc12`: 7.08 µM [rising, full curve, poor fit]. With `CCN1C(=O)/C(=C/c2ccc(OCc3ccc(C(=O)O)cc3)c(Cl)c2)NC1=S`, under setting [1], the AC50 was 12.6 µM [falling, partial curve, poor fit]. As to `Cc1cc(SCC(=O)NN)c2cc(Br)ccc2n1`, the AC50 under setting [1] is 17.8 µM [falling, single point]. Turning to `C#CCOc1ccc(Br)cc1/C=N/O`, under setting [1], the AC50 was 0.651 µM [rising, full curve]. Same read-out and setting: the same measure for `CN(C)c1oc(-c2ccccc2Cl)nc1C#N`: 16.4 µM [rising, single point]. For `CCOc1cccc2cc(-c3cn4c(n3)sc3cc(C)ccc34)c(=O)oc12`, under setting [1], the AC50 is 0.316 µM [falling, full curve, poor fit]. For `O=C(Nc1ccc(N2CCOCC2)nc1)c1ccccc1Cl`, the AC50 under setting [1] is 14.1 µM [falling, partial curve, poor fit].

Regarding `COC(=O)C(Cc1ccccc1)NC(=O)c1ccc(NS(=O)(=O)c2ccc3[nH]c(=O)[nH]c3c2)cc1` (stereo not given), the AC50 under setting [1] is 20.6 µM [rising, single point]. Still for that read-out and setting: next, `COc1ccc2c(-c3ccc(OCCN4CCCCC4)cc3)c(-c3ccccc3OC)sc2c1`: 20.6 µM [falling, single point]; `COCCNC(=O)C(=O)N/N=C/c1cccs1`: 15.8 µM [falling, single point]; `O=C(Cc1ccccc1)N(Cc1cccnc1)c1nc2c(F)cccc2s1`: 35.5 µM [falling, single point].

For `Fc1ccc(C2CC(c3cccs3)=NN2c2ccccc2)cc1` (stereo not given), the half-maximal activity concentration (AC50) under setting [1] was 0.316 µM [rising, full curve, poor fit]. Consider `Cn1cc(Cl)c(C(=O)N/N=C/c2ccc(OS(=O)(=O)c3ccccc3)cc2)n1`, for which, under setting [1], the AC50 is 10.3 µM [falling, partial curve, poor fit].

With `COc1ccc(COC(=O)Oc2ccc(CNC(C)=O)cc2OC)c([N+](=O)[O-])c1`, the half-maximal activity concentration (AC50) under setting [1] was 0.0164 µM [rising, full curve, poor fit]. Consider `COc1ccc(/C=N/NC(=O)c2cc(C)oc2C)cc1OCc1ccccc1`, for which the AC50 under setting [1] was 8.91 µM [falling, partial curve, poor fit]. In the case of `Cc1nn(CCOc2ccccc2)c(=O)n1-c1c(F)cccc1F`, under setting [1], the AC50 was 1.64 µM [rising, partial curve]. Take `Cc1cccc(N(C)C(=O)CN2C(=O)COc3ccc(S(=O)(=O)N4CCCCCC4)cc32)c1`: the AC50 under setting [1] was 1.41 µM [rising, full curve, poor fit]. Consider `COc1ccc(CN(C(=O)CNC(=O)c2ccco2)C(C(=O)NC2CCCC2)c2ccco2)cc1` (stereo not given), for which the AC50 under setting [1] was 0.259 µM [rising, single point].

As for `O=C(COC(=O)c1cccs1)NCc1ccco1`, the AC50 under setting [1] is 14.1 µM [rising, single point]. Regarding `Cc1ccc(S(=O)(=O)Nc2cccc3c2O[C@H](CN(C)C(=O)Nc2cccc4ccccc24)[C@H](C)CN([C@H](C)CO)C3=O)cc1`, under setting [1], the AC50 was 29.1 µM [falling, single point]. `CC(NC(=O)Cc1ccc(Br)cc1)c1ccccc1` (stereo not given): the AC50 under setting [1] was 35.5 µM [rising, single point].

Regarding `Cc1ccc(-n2cc(-c3ccccc3)c3c(NC4CCCC4)ncnc32)cc1`, under setting [1], the AC50 was 2.51 µM [rising, full curve]. For the compound `CC1(C)CC(=O)CC(=NCC(=O)O)C1`, under setting [1], the AC50 was 6.51 µM [rising, single point]. On the same count and under the same terms, next, `CCOc1ccccc1NS(=O)(=O)c1cccs1`: 0.00411 µM [rising, full curve, poor fit].

Turning to `O=S(=O)(c1ccc(Br)cc1)N1CCN(c2cc(-c3ccccc3)nc3ncnn23)CC1`, the AC50 under setting [1] was 29.1 µM [falling, single point].

On to `O=C(O)CC1(CC(=O)Nc2ccc3ccccc3c2)CCCCC1`, for which, under setting [1], the AC50 is 5.8 µM [falling, partial curve]. On to `Cc1cc(C)cc(N2CN=C3SCC(=O)N3C2)c1`, for which, under setting [1], the AC50 was 6.51 µM [rising, single point].

Take `CCn1c(/C=C/c2ccc(O)cc2)nc2ccccc2c1=O`: the AC50 under setting [1] is 28.2 µM [falling, single point].

With `COc1cccc(CNCCNC(=O)c2ccco2)c1OC`, the AC50 under setting [1] was 0.82 µM [rising, full curve, poor fit].

On to `Cn1cc(CC(=O)N2CCN(c3ccc(Cl)cc3)CC2)c2ccccc21`, for which, under setting [1], the AC50 is 5.17 µM [rising, full curve]. Consider `Cc1ccc(NCc2ccco2)cc1C`, for which the AC50 under setting [1] is 12.6 µM [rising, single point].

In the case of `O=C(NCCc1c[nH]c2ccccc12)c1c(Cl)nc2sccn12`, the AC50 under setting [1] is 0.562 µM [rising, full curve, poor fit]. As for `O=S(=O)(c1ccc(Cl)nc1)N(Cc1ccccc1)Cc1ccccc1`, under setting [1], the AC50 is 4.11 µM [falling, full curve]. Take `COC(=O)c1ccccc1S(=O)(=O)N1CCC(C(=O)NC2CCCCC2C)CC1` (stereo not given): the AC50 under setting [1] was 0.164 µM [rising, full curve, poor fit].

On to `COc1ccc(C(=O)N/C(=C/c2cccs2)c2nc3ccccc3[nH]2)cc1OC`, for which the concentration at half-maximal activity (AC50) under setting [1] was 20.6 µM [rising, partial curve].

Consider `O=C(Nn1c(O)c(C=C2N=c3ccccc3=N2)sc1=S)c1cccc(Cl)c1`, for which the AC50 under setting [1] is 7.08 µM [falling, partial curve]. The same measure, in the same setting: the same measure for `COc1cc(NC(=O)CN2CCN(c3ccccc3F)CC2)c(C)cc1[N+](=O)[O-]`: 1.3 µM [rising, full curve, poor fit]; for `COc1ccc(-n2c(=O)n(Cc3ccccc3)c(=O)c3[nH]cnc32)cc1`: 11.2 µM [falling, partial curve, poor fit]; for `CCOC(=O)c1nc2ccccc2c(=O)[nH]1`: 25.1 µM [falling, single point]. For `Cc1cc(C(=O)COC(=O)c2cccs2)c(C)n1-c1c(C)n(C)n(-c2ccccc2)c1=O`, the concentration at half-maximal activity (AC50) under setting [1] was 2.24 µM [falling, partial curve]. On the same count and under the same terms, next, `O=c1c2c(-c3ccccc3)csc2nc2c3ccccc3c(NCCN3CCOCC3)nn12`: 25.1 µM [falling, single point]. On to `O=C(COc1ccc(Br)cc1Cl)NC(=O)NC1CCCC1`, for which the AC50 under setting [1] is 10.3 µM [falling, single point].

As to `CC(C)(C)C(=O)/C=c1\[nH]c(=O)/c(=C\c2ccc(C#N)cc2)s1`, the AC50 under setting [1] is 2.82 µM [rising, partial curve, poor fit].

By AC50 is commonly meant the concentration at which the activity in the assay is half-maximal.
